Test results reported in ChEMBL document CHEMBL3085692, “Violapyrones A-G, α-pyrone derivatives from Streptomyces violascens isolated from Hylobates hoolock feces” (J Nat Prod, 2013).
Converted amounts (≈) assume the structure as drawn.

System: Candida albicans
Test: Antimicrobial activity against Candida albicans ATCC 10231 by micro broth dilution method
Format: functional
Summary of the method: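 Endpoint is the minimal inhibitory concentration (MIC), reported as the mean of three independent experiments. Reference drugs were ciprofloxacin for the bacteria and amphotericin B for the fungi. E. coli ATCC 25922 and P. aeruginosa ATCC 27853 were tested in a panel with B. subtilis ATCC 6633 and S. aureus ATCC 25923.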

## C[C@@H]1[C@H](O)[C@@H](C)/C=C/C=C/C=C/C=C/C=C/C=C/C=C/[C@H](O[C@@H]2O[C@H](C)[C@@H](O)[C@H](N)[C@@H]2O)C[C@@H]2O[C@](O)(C[C@@H](O)C[C@@H](O)[C@H](O)CC[C@@H](O)C[C@@H](O)CC(=O)O[C@H]1C)C[C@H](O)[C@H]2C(=O)O [AMPHOTERICIN B]
  MIC: 0.5 µg/mL (≈ 0.541 µM)
